{"source": "PubChem BioAssay AID1259308 (NCATS, 2017)", "assay": "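Candidate targets for better recombinant protein yield in mammalian cells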 (primary screen)", "system": "human HEK293 embryonic kidney cells stably expressing firefly luciferase (HEK-CMV-Luc2-Hygro)", "reagent": "single siRNA against human genes, 0.8 pmol siRNA per well", "time to read-out": "72 h", "detection": "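Reporter luminescence and viable-cell signal on separate replicate plates, given as percent of non-targeting control and median/MAD z-scores, plus per-cell luciferase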", "direction": "total luciferase, z-score and total luciferase, % of control: higher = more reporter protein produced", "hit rule": "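Active when the median/MAD z-score for overall luciferase is greater than 3; a gene was taken forward for validation with new siRNAs if at least two of its three siRNAs passed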", "calls": "active = raised luciferase; inactive = no rise", "note": "This is one part, drawn at random, of about 59,000 deposited reagents. In the full data, about 1,510 (2.6%) are marked active. 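Calls use total luciferase alone and ignore viability, so some active siRNAs may act by altering cell number.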 Unmarked entries are inactive. Reagents against one gene are numbered here. Further read-outs or replicates are left out here."}
{"Gene": "TOMM5 (translocase of outer mitochondrial membrane 5)", "siRNA no.": 1, "total luciferase, z-score": 0.729, "total luciferase, % of control": 96.4}
{"Gene": "TOMM5 (translocase of outer mitochondrial membrane 5)", "siRNA no.": 2, "total luciferase, z-score": -0.0375, "total luciferase, % of control": 81.1}
{"Gene": "TOMM5 (translocase of outer mitochondrial membrane 5)", "siRNA no.": 3, "total luciferase, z-score": 0.452, "total luciferase, % of control": 90.9}
{"Gene": "PDE6A (phosphodiesterase 6A)", "siRNA no.": 1, "total luciferase, z-score": 2.06, "total luciferase, % of control": 123}
{"Gene": "PDE6A (phosphodiesterase 6A)", "siRNA no.": 2, "total luciferase, z-score": -0.15, "total luciferase, % of control": 78.9}
{"Gene": "PDE6A (phosphodiesterase 6A)", "siRNA no.": 3, "total luciferase, z-score": 1.17, "total luciferase, % of control": 105}
{"Gene": "RPL26L1 (ribosomal protein L26 like 1)", "siRNA no.": 1, "total luciferase, z-score": -2.25, "total luciferase, % of control": 37.2}
{"Gene": "RPL26L1 (ribosomal protein L26 like 1)", "siRNA no.": 2, "total luciferase, z-score": -1.06, "total luciferase, % of control": 60.8}
{"Gene": "RPL26L1 (ribosomal protein L26 like 1)", "siRNA no.": 3, "total luciferase, z-score": 0.699, "total luciferase, % of control": 95.8}
{"Gene": "ORAI1 (ORAI calcium release-activated calcium modulator 1)", "siRNA no.": 1, "total luciferase, z-score": -0.237, "total luciferase, % of control": 77.2}
{"Gene": "ORAI1 (ORAI calcium release-activated calcium modulator 1)", "siRNA no.": 2, "total luciferase, z-score": 0.905, "total luciferase, % of control": 99.9}
{"Gene": "ORAI1 (ORAI calcium release-activated calcium modulator 1)", "siRNA no.": 3, "total luciferase, z-score": -0.0429, "total luciferase, % of control": 81}
